From patent US12419871B2, “Biomolecules involved in Alzheimer's disease” (ELECTROPHORETICS LIMITED, priority 2015, dated 2025)

B1: Q9BQ16 (protein, UniProt Q9BQ16 1-436, looked up)
chain: MLKVSAVLCVCAAAWCSQSLAAAAAVAAAGGRSDGGNFLDDKQWLTTISQYDKEVGQWNKFRDEVEDDYFRTWSPGKPFDQALDPAKDPCLKMKCSRHKVCIAQDSQTAVCISHRRLTHRMKEAGVDHRQWRGPILSTCKQCPVVYPSPVCGSDGHTYSFQCKLEYQACVLGKQISVKCEGHCPCPSDKPTSTSRNVKRACSDLEFREVANRLRDWFKALHESGSQNKKTKTLLRPERSRFDTSILPICKDSLGWMFNRLDTNYDLLLDQSELRSIYLDKNEQCTKAFFNSCDTYKDSLISNNEWCYCFQRQQDPPCQTELSNIQKRQGVKKLLGQYIPLCDEDGYYKPTQCHGSVGQCWCVDRYGNEVMGSRINGVADCAIDFEISGDFASGDFHEWTDDEDDEDDIMNDEDEIEDDDEDEGDDDDGGDDHDVYI
modifications: full-length
B2: Q9BTV4 (protein, UniProt Q9BTV4 1-400, looked up)
chain: MAANYSSTSTRREHVKVKTSSQPGFLERLSETSGGMFVGLMAFLLSFYLIFTNEGRALKTATSLAEGLSLVVSPDSIHSVAPENEGRLVHIIGALRTSKLLSDPNYGVHLPAVKLRRHVEMYQWVETEESREYTEDGQVKKETRYSYNTEWRSEIINSKNFDREIGHKNPSAMAVESFMATAPFVQIGRFFLSSGLIDKVDNFKSLSLSKLEDPHVDIIRRGDFFYHSENPKYPEVGDLRVSFSYAGLSGDDPDLGPAHVVTVIARQRGDQLVPFSTKSGDTLLLLHHGDFSAEEVFHRELRSNSMKTWGLRAAGWMAMFMGLNLMTRILYTLVDWFPVFRDLVNIGLKAFAFCVATSLTLLTVAAGWLFYRPLWALLIAGLALVPILVARTRVPAKKLE
modifications: full-length
B3: Q9Y2W1 (protein, UniProt Q9Y2W1 1-955, looked up)
chain: MSKTNKSKSGSRSSRSRSASRSRSRSFSKSRSRSRSLSRSRKRRLSSRSRSRSYSPAHNRERNHPRVYQNRDFRGHNRGYRRPYYFRGRNRGFYPWGQYNRGGYGNYRSNWQNYRQAYSPRRGRSRSRSPKRRSPSPRSRSHSRNSDKSSSDRSRRSSSSRSSSNHSRVESSKRKSAKEKKSSSKDSRPSQAAGDNQGDEAKEQTFSGGTSQDTKASESSKPWPDATYGTGSASRASAVSELSPRERSPALKSPLQSVVVRRRSPRPSPVPKPSPPLSSTSQMGSTLPSGAGYQSGTHQGQFDHGSGSLSPSKKSPVGKSPPSTGSTYGSSQKEESAASGGAAYTKRYLEEQKTENGKDKEQKQTNTDKEKIKEKGSFSDTGLGDGKMKSDSFAPKTDSEKPFRGSQSPKRYKLRDDFEKKMADFHKEEMDDQDKDKAKGRKESEFDDEPKFMSKVIGANKNQEEEKSGKWEGLVYAPPGKEKQRKTEELEEESFPERSKKEDRGKRSEGGHRGFVPEKNFRVTAYKAVQEKSSSPPPRKTSESRDKLGAKGDFPTGKSSFSITREAQVNVRMDSFDEDLARPSGLLAQERKLCRDLVHSNKKEQEFRSIFQHIQSAQSQRSPSELFAQHIVTIVHHVKEHHFGSSGMTLHERFTKYLKRGTEQEAAKNKKSPEIHRRIDISPSTFRKHGLAHDEMKSPREPGYKAEGKYKDDPVDLRLDIERRKKHKERDLKRGKSRESVDSRDSSHSRERSAEKTEKTHKGSKKQKKHRRARDRSRSSSSSSQSSHSYKAEEYTEETEEREESTTGFDKSRLGTKDFVGPSERGGGRARGTFQFRARGRGWGRGNYSGNNNNNSNNDFQKRNREEEWDPEYTPKSKKYYLHDDREGEGSDKWVSRGRGRGAFPRGRGRFMFRKSSTSPKWAHDKFSGEEGEIEDDESGTENREEKDNIQPTTE
modifications: full-length
B4: Q496J9 (protein, UniProt Q496J9 1-727, looked up)
chain: MEDSYKDRTSLMKGAKDIAREVKKQTVKKVNQAVDRAQDEYTQRSYSRFQDEEDDDDYYPAGETYNGEANDDEGSSEATEGHDEDDEIYEGEYQGIPSMNQAKDSIVSVGQPKGDEYKDRRELESERRADEEELAQQYELIIQECGHGRFQWALFFVLGMALMADGVEVFVVGFVLPSAETDLCIPNSGSGWLGSIVYLGMMVGAFFWGGLADKVGRKQSLLICMSVNGFFAFLSSFVQGYGFFLFCRLLSGFGIGGAIPTVFSYFAEVLAREKRGEHLSWLCMFWMIGGIYASAMAWAIIPHYGWSFSMGSAYQFHSWRVFVIVCALPCVSSVVALTFMPESPRFLLEVGKHDEAWMILKLIHDTNMRARGQPEKVFTVNKIKTPKQIDELIEIESDTGTWYRRCFVRIRTELYGIWLTFMRCFNYPVRDNTIKLTIVWFTLSFGYYGLSVWFPDVIKPLQSDEYALLTRNVERDKYANFTINFTMENQIHTGMEYDNGRFIGVKFKSVTFKDSVFKSCTFEDVTSVNTYFKNCTFIDTVFDNTDFEPYKFIDSEFKNCSFFHNKTGCQITFDDDYSAYWIYFVNFLGTLAVLPGNIVSALLMDRIGRLTMLGGSMVLSGISCFFLWFGTSESMMIGMLCLYNGLTISAWNSLDVVTVELYPTDRRATGFGFLNALCKAAAVLGNLIFGSLVSITKSIPILLASTVLVCGGLVGLCLPDTRTQVLM
modifications: full-length
B5: P10599 (protein, UniProt P10599 1-105, looked up)
chain: MVKQIESKTAFQEALDAAGDKLVVVDFSATWCGPCKMIKPFFHSLSEKYSNVIFLEVDVDDCQDVASECEVKCMPTFQFFKKGQKVGEFSGANKEKLEATINELV
modifications: full-length
B6: P28289 (protein, UniProt P28289 1-359, looked up)
chain: MSYRRELEKYRDLDEDEILGALTEEELRTLENELDELDPDNALLPAGLRQKDQTTKAPTGPFKREELLDHLEKQAKEFKDREDLVPYTGEKRGKVWVPKQKPLDPVLESVTLEPELEEALANASDAELCDIAAILGMHTLMSNQQYYQALSSSSIMNKEGLNSVIKPTQYKPVPDEEPNSTDVEETLERIKNNDPKLEEVNLNNIRNIPIPTLKAYAEALKENSYVKKFSIVGTRSNDPVAYALAEMLKENKVLKTLNVESNFISGAGILRLVEALPYNTSLVEMKIDNQSQPLGNKVEMEIVSMLEKNATLLKFGYHFTQQGPRLRASNAMMNNNDLVRKRRLADLTGPIIPKCRSGV
modifications: full-length
B7: Q86TV6 (protein, UniProt Q86TV6 1-843, looked up)
chain: MATKKAGSRLETEIERCRSECQWERIPELVKQLSAKLIANDDMAELLLGESKLEQYLKEHPLRQGASPRGPKPQLTEVRKHLTAALDRGNLKSEFLQESNLIMAKLNYVEGDYKEALNIYARVGLDDLPLTAVPPYRLRVIAEAYATKGLCLEKLPISSSTSNLHVDREQDVITCYEKAGDIALLYLQEIERVILSNIQNRSPKPGPAPHDQELGFFLETGLQRAHVLYFKNGNLTRGVGRFRELLRAVETRTTQNLRMTIARQLAEILLRGMCEQSYWNPLEDPPCQSPLDDPLRKGANTKTYTLTRRARVYSGENIFCPQENTEEALLLLLISESMANRDAVLSRIPEHKSDRLISLQSASVVYDLLTIALGRRGQYEMLSECLERAMKFAFEEFHLWYQFALSLMAAGKSARAVKVLKECIRLKPDDATIPLLAAKLCMGSLHWLEEAEKFAKTVVDVGEKTSEFKAKGYLALGLTYSLQATDASLRGMQEVLQRKALLAFQRAHSLSPTDHQAAFYLALQLAISRQIPEALGYVRQALQLQGDDANSLHLLALLLSAQKHYHDALNIIDMALSEYPENFILLFSKVKLQSLCRGPDEALLTCKHMLQIWKSCYNLTNPSDSGRGSSLLDRTIADRRQLNTITLPDFSDPETGSVHATSVAASRVEQALSEVASSLQSSAPKQGPLHPWMTLAQIWLHAAEVYIGIGKPAEATACTQEAANLFPMSHNVLYMRGQIAELRGSMDEARRWYEEALAISPTHVKSMQRLALILHQLGRYSLAEKILRDAVQVNSTAHEVWNGLGEVLQAQGNDAAATECFLTALELEASSPAVPFTIIPRVL
modifications: full-length
B8: Q08629 (protein, UniProt Q08629 1-439, looked up)
chain: MPAIAVLAAAAAAWCFLQVESRHLDALAGGAGPNHGNFLDNDQWLSTVSQYDRDKYWNRFRDDDYFRNWNPNKPFDQALDPSKDPCLKVKCSPHKVCVTQDYQTALCVSRKHLLPRQKKGNVAQKHWVGPSNLVKCKPCPVAQSAMVCGSDGHSYTSKCKLEFHACSTGKSLATLCDGPCPCLPEPEPPKHKAERSACTDKELRNLASRLKDWFGALHEDANRVIKPTSSNTAQGRFDTSILPICKDSLGWMFNKLDMNYDLLLDPSEINAIYLDKYEPCIKPLFNSCDSFKDGKLSNNEWCYCFQKPGGLPCQNEMNRIQKLSKGKSLLGAFIPRCNEEGYYKATQCHGSTGQCWCVDKYGNELAGSRKQGAVSCEEEQETSGDFGSGGSVVLLDDLEYERELGPKDKEGKLRVHTRAVTEDDEDEDDDKEDEVGYIW
modifications: full-length
B9: Q9Y3I0 (protein, UniProt Q9Y3I0 1-505, looked up)
chain: MSRSYNDELQFLEKINKNCWRIKKGFVPNMQVEGVFYVNDALEKLMFEELRNACRGGGVGGFLPAMKQIGNVAALPGIVHRSIGLPDVHSGYGFAIGNMAAFDMNDPEAVVSPGGVGFDINCGVRLLRTNLDESDVQPVKEQLAQAMFDHIPVGVGSKGVIPMNAKDLEEALEMGVDWSLREGYAWAEDKEHCEEYGRMLQADPNKVSARAKKRGLPQLGTLGAGNHYAEIQVVDEIFNEYAAKKMGIDHKGQVCVMIHSGSRGLGHQVATDALVAMEKAMKRDKIIVNDRQLACARIASPEGQDYLKGMAAAGNYAWVNRSSMTFLTRQAFAKVFNTTPDDLDLHVIYDVSHNIAKVEQHVVDGKERTLLVHRKGSTRAFPPHHPLIAVDYQLTGQPVLIGGTMGTCSYVLTGTEQGMTETFGTTCHGAGRALSRAKSRRNLDFQDVLDKLADMGIAIRVASPKLVMEEAPESYKNVTDVVNTCHDAGISKKAIKLRPIAVIKG
modifications: full-length
B10: P13726 (protein, UniProt P13726 1-295, looked up)
chain: METPAWPRVPRPETAVARTLLLGWVFAQVAGASGTTNTVAAYNLTWKSTNFKTILEWEPKPVNQVYTVQISTKSGDWKSKCFYTTDTECDLTDEIVKDVKQTYLARVFSYPAGNVESTGSAGEPLYENSPEFTPYLETNLGQPTIQSFEQVGTKVNVTVEDERTLVRRNNTFLSLRDVFGKDLIYTLYYWKSSSSGKKTAKTNTNEFLIDVDKGENYCFSVQAVIPSRTVNRKSTDSPVECMGQEKGEFREIFYIIGAVVFVVIILVIILAISLHKCRKAGVGQSWKENSPLNVS
modifications: full-length
B11: Q5H9L2 (protein, UniProt Q5H9L2 1-206, looked up)
chain: MEKLYKENEGKPENERNLESEGKPEDEGSTEDEGKSDEEEKPDMEGKTECEGKREDEGEPGDEGQLEDEGNQEKQGKSEGEDKPQSEGKPASQAKPESQPRAAEKRPAEDYVPRKAKRKTDRGTDDSPKDSQEDLQERHLSSEEMMRECGDVSRAQEELRKKQKMGGFHWMQRDVQDPFAPRGQRGVRGVRGGGRGQKDLEDVPYV
modifications: full-length
B12: Q00577 (protein, UniProt Q00577 1-322, looked up)
chain: MADRDSGSEQGGAALGSGGSLGHPGSGSGSGGGGGGGGGGGGSGGGGGGAPGGLQHETQELASKRVDIQNKRFYLDVKQNAKGRFLKIAEVGAGGNKSRLTLSMSVAVEFRDYLGDFIEHYAQLGPSQPPDLAQAQDEPRRALKSEFLVRENRKYYMDLKENQRGRFLRIRQTVNRGPGLGSTQGQTIALPAQGLIEFRDALAKLIDDYGVEEEPAELPEGTSLTVDNKRFFFDVGSNKYGVFMRVSEVKPTYRNSITVPYKVWAKFGHTFCKYSEEMKKIQEKQREKRAACEQLHQQQQQQQEETAAATLLLQGEEEGEED
modifications: full-length

Experiment: TMTcalibrator quantification of regulated proteins in AD CSF versus control
Design: species or system human
Conditions: CSF of AD patient versus control; non-modified peptides of each protein summed for three control and three AD cases

In order of falling “Log2 AD/Control” value:
1. B11  1.76
2. B8  1.73
3. B3  1.19
4. B4  1.15
5. B9  1.15
6. B12  1.06
7. B6  1.00
8. B7  0.95
9. B5  0.93
10. B1  0.84
11. B10  0.68
12. B2  −0.80
